Measurements: patent US20140228293A1 (THE GENERAL HOSPITAL CORPORATION, priority 2011, published 2014)

Assay: general procedure: peptide synthesis; HATU, DIEA
Details: for step yield: late stage modification step

Row | Substance | step yield [%] | crude mass (whole synthesis) [mg] | crude yield (whole synthesis, scale of the general procedure 0.05 mmol) [%]
1 | H-SVSEIQLMHNLGKHLNSMERVEW-SPh | 28 | 156.4 | 68
2 | [Nle^8,18]hPTH(1-37) | 38 | – | –
3 | [Nle^8,18]hPTH(1-84) | 57 | – | –
